Test results as given in PMC9166367.
These are yes or no findings as the source states them, for the method shown. Some results given as binding are weak or reduced against the parent protein; the word gives no strength.

Protein sequences, listed by entry. Tags and fused reporters are not part of them.
UniProt P07737: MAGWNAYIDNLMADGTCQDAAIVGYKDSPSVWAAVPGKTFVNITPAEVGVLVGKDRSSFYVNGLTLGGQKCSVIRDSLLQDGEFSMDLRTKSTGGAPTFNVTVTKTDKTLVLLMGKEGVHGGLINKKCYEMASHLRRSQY

Target: Recombinant Human Profilin 1 (human) (UniProt P07737)
Assay: intrinsic tryptophan fluorescence (emission spectra with and without the peptide); 10 uM human Profilin 1 in the absence and presence of 4.5 mM peptide, 20 °C, excitation 295 nm, emission 300-400 nm; blue shift and enhanced emission of Trp3 and Trp31 of Profilin 1 on ligand binding; both purified

binding: binds weakly
Binder: GPPPPAPAPQP (N-terminal acetyl; C-terminal amide) [proline-rich peptide ac…am, covering residues 166-175 of hCPEB3]
